The values that follow come from article PMC13651886.

Protein sequences, listed by entry. Tags and fused reporters are not part of them.
UniProt P35222: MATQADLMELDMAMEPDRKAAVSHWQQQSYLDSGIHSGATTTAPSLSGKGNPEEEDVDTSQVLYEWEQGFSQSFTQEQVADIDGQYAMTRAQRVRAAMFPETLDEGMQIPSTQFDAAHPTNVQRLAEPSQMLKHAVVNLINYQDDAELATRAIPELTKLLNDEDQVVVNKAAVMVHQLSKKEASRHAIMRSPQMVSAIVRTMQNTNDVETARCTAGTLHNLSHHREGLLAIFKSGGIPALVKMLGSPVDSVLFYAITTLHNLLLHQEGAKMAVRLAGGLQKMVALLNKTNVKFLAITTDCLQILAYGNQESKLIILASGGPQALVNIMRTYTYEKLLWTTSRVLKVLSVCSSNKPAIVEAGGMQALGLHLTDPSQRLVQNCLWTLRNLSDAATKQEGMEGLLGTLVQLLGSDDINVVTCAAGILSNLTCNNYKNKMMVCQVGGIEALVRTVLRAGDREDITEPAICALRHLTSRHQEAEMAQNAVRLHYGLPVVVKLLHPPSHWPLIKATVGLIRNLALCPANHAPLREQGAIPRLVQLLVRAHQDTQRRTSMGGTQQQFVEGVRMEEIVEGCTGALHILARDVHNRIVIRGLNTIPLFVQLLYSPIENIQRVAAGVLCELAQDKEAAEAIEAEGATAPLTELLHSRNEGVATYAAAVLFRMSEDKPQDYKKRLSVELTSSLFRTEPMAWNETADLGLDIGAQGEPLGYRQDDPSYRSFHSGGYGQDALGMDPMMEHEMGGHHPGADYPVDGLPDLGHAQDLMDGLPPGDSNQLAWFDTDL
UniProt Q96BN8: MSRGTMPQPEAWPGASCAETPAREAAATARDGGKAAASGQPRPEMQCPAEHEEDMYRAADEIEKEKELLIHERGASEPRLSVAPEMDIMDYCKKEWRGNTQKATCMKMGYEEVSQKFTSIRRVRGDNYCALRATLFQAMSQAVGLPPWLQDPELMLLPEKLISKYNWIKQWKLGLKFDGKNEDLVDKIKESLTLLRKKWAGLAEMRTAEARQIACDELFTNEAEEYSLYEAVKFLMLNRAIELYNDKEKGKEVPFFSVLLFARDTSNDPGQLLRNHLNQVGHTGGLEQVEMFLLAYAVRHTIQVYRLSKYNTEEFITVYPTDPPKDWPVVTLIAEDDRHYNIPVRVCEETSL

No constants are given. Whether binding was seen depends on the method and setting. In cells and extracts the contact can be indirect. Some binding calls cover weakened binding; strength is not graded here.

The target of this assay is β-catenin (human (endogenous in HaCaT)) (UniProt P35222). As to the kind of experiment: co-IP; anti-β-catenin (BD, 610153) coupled to Protein G Sepharose beads; lysates of WT and OTULIN KD HaCaTs in NP-40 buffer (50 mM tris-HCl pH 7.6, 1 mM EDTA, 150 mM NaCl, 1% NP-40, 0.5% sodium deoxycholate, 0.1% SDS), incubated overnight, washed three times; cells untreated or treated with MG132 for 16 hours; blotted for OTULIN.

Regarding “OTULIN (OTU DUB with linear linkage specificity) (from UniProt Q96BN8 1-352) (enzyme)”, the binding result is listed as “binds”.
